Assay results from publication PMC10442049.
Like-named read-outs stand apart in the source and are kept apart here. These are yes or no findings as the source states them, for the method shown. In cells and extracts the contact can be indirect. These calls come from enrichment with a bait or labelling near it, and not all partners need be listed.

Chains of the proteins cited; added tags and fusions are not shown.
UniProt F4JP43: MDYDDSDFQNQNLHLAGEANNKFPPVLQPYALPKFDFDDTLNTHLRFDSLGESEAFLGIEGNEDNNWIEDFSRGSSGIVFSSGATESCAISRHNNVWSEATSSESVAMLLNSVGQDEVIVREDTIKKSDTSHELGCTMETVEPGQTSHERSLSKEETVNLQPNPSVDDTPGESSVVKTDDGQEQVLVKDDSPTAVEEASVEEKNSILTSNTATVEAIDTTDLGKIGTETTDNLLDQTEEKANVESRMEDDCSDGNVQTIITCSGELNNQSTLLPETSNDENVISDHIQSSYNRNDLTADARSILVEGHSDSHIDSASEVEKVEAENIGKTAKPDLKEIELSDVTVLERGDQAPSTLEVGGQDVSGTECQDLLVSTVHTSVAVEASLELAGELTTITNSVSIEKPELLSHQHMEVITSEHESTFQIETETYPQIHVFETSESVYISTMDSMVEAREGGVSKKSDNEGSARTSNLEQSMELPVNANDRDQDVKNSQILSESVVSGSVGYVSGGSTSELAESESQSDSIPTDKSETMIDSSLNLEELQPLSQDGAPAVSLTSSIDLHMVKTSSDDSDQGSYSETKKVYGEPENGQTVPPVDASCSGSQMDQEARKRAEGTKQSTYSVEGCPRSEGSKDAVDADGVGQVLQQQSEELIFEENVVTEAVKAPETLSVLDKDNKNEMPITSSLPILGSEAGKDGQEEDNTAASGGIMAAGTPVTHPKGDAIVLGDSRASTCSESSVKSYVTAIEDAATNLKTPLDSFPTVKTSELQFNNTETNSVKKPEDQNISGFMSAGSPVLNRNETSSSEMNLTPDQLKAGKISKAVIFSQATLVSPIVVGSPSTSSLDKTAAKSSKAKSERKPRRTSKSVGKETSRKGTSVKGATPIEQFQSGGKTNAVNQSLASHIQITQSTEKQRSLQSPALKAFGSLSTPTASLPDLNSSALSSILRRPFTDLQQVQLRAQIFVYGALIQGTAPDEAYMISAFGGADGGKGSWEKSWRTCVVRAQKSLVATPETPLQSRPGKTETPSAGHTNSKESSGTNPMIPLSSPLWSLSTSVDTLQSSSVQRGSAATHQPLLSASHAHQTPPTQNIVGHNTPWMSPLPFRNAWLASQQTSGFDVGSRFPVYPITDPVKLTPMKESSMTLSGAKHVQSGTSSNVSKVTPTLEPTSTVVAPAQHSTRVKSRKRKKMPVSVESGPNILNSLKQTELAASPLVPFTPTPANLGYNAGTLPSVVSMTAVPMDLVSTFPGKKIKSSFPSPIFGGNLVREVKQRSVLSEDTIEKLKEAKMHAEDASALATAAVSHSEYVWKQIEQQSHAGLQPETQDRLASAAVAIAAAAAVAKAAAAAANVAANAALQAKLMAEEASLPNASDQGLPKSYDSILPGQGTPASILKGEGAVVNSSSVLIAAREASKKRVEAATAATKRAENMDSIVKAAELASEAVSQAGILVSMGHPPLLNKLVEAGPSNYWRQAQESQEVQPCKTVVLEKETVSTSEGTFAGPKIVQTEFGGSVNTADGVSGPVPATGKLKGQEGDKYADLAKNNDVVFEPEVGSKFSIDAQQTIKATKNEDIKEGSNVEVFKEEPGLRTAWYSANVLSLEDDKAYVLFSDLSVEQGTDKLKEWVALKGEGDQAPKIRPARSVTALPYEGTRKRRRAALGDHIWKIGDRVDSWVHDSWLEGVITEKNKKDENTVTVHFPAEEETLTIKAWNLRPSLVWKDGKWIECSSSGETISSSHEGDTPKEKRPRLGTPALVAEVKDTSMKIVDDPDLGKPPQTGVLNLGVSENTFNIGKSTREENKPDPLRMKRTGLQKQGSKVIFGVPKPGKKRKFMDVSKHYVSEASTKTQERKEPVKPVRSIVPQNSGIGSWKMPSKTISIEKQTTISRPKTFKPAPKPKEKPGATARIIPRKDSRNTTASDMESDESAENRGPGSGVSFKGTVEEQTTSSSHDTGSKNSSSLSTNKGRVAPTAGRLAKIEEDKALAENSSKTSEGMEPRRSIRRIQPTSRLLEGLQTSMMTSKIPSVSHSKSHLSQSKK
UniProt Q96321: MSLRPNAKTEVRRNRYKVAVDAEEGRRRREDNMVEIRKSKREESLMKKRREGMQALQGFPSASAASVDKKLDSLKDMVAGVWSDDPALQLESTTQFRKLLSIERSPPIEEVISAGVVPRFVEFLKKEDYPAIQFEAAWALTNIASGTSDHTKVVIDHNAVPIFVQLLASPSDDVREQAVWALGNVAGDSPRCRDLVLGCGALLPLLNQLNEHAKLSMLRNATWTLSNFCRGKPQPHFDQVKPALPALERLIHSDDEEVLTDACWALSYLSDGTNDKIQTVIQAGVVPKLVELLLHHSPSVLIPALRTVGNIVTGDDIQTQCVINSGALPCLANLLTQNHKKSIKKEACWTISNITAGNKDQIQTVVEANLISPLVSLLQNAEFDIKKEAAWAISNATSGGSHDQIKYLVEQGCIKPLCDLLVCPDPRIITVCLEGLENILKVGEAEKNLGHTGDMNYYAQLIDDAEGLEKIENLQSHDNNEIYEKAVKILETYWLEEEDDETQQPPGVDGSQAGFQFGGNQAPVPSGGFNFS
UniProt F4JL11: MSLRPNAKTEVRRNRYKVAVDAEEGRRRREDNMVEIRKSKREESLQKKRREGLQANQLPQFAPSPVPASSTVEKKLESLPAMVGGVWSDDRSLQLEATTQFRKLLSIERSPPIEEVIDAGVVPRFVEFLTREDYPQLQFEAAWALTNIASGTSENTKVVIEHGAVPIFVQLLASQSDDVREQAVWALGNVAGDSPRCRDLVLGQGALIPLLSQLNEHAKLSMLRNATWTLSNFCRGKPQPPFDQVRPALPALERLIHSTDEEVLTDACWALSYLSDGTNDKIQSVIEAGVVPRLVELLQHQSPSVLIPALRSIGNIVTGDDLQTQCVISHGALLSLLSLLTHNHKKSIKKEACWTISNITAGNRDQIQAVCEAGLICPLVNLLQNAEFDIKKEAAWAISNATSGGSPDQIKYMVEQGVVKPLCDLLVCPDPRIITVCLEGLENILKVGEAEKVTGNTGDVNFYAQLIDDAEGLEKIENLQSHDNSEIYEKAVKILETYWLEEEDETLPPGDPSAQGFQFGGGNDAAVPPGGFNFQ
UniProt Q9SMV6: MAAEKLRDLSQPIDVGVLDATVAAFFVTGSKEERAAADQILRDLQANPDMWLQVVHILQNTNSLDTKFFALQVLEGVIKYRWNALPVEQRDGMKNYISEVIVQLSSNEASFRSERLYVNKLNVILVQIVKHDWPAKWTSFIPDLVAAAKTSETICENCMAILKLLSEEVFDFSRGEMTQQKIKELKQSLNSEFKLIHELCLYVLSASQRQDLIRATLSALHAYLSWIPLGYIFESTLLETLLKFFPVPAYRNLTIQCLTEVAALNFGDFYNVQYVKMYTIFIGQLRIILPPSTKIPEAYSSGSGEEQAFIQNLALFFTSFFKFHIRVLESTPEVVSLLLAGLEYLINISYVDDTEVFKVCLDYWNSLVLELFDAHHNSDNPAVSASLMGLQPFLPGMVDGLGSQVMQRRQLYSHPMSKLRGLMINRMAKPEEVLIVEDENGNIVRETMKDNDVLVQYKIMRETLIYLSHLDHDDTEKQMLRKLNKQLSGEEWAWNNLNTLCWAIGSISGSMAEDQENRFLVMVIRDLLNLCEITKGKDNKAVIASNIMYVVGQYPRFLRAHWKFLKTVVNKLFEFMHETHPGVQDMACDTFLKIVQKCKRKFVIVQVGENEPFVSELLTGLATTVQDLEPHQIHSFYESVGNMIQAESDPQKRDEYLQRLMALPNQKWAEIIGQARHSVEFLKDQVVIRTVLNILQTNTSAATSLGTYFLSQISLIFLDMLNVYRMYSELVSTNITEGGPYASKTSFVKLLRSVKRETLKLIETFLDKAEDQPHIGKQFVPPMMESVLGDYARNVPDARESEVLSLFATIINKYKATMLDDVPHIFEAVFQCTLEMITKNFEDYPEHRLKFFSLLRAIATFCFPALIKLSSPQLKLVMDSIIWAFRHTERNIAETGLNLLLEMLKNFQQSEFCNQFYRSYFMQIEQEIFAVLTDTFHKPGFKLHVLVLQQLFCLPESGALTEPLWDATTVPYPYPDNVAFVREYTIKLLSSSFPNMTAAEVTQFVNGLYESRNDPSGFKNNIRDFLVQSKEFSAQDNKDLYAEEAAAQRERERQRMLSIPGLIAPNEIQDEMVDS
UniProt Q8RWY3: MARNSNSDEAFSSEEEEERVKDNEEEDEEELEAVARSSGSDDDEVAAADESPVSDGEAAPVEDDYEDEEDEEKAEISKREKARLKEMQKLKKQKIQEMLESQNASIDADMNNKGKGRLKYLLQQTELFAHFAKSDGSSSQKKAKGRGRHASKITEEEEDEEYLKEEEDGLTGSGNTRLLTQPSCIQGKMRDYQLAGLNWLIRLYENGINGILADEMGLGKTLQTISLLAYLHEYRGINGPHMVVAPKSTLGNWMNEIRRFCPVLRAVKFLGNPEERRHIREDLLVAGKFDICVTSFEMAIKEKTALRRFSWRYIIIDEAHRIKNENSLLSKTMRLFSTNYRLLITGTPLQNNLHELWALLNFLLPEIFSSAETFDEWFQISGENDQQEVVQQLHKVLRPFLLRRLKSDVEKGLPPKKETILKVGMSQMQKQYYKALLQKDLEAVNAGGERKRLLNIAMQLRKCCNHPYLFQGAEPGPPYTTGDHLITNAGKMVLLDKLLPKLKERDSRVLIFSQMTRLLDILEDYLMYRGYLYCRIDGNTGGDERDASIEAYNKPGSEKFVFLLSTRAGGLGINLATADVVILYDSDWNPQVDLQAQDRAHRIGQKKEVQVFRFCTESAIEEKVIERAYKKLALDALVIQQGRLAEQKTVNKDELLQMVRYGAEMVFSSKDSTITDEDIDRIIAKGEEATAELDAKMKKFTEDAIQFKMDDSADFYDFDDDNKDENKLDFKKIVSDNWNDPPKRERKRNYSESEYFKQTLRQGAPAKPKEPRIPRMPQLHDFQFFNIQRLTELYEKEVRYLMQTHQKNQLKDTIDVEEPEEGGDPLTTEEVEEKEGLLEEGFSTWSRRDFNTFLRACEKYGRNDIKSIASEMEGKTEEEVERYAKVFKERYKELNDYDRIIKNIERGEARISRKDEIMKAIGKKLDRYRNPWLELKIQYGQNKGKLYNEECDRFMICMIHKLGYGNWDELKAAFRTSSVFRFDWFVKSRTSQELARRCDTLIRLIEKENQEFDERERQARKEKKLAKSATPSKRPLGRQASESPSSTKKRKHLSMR
UniProt O80480: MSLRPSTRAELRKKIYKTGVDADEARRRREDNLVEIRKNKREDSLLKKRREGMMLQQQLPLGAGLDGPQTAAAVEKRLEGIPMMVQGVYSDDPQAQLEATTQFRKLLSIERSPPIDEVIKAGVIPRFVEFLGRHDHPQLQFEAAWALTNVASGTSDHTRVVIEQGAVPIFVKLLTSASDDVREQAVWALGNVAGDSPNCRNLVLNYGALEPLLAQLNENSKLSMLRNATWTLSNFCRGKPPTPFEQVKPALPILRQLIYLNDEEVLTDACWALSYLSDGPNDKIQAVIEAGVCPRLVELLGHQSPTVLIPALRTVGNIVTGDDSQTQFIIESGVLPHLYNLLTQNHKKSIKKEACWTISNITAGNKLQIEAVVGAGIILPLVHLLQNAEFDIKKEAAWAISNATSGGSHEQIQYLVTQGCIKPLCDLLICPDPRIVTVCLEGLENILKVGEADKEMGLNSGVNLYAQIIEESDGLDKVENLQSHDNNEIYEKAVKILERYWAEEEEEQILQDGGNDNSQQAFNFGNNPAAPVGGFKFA
UniProt O04294: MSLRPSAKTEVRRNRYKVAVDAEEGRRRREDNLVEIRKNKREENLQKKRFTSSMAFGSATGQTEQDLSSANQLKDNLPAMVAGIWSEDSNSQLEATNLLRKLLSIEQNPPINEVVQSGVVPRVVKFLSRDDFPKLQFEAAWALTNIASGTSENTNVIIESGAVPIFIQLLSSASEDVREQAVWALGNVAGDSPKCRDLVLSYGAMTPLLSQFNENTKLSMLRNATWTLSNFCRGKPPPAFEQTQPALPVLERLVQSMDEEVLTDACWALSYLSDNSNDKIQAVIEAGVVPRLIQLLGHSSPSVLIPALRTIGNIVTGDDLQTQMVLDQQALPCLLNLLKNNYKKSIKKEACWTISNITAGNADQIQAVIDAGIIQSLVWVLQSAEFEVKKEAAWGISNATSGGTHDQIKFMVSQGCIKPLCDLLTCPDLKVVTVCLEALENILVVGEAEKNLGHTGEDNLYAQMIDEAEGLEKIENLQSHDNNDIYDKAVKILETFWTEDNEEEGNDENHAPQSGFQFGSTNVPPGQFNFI

Experiments:
[1] = target: SWO1g-Myc (SWOLLEN 1 with 3xMyc, from SWO1pro:SWO1g-Myc) (Arabidopsis thaliana) (UniProt F4JP43); assay: affinity purification with mass spectrometry; SWO1g-Myc as bait from transgenic Arabidopsis seedlings; anti-Myc agarose beads, 4 °C, 2 h; lysis buffer 50 mM Tris pH 7.6, 150 mM NaCl, 5 mM MgCl2, 10% glycerol, 0.1% NP-40, 0.5 mM DTT; four independent experiments
[2] = target: IMPA1-Myc (from pIMPA1:IMPA1-Myc) (Arabidopsis thaliana) (UniProt Q96321); assay: affinity purification with mass spectrometry; IMPA1-Myc or IMPA2-Myc as bait from transgenic Arabidopsis seedlings; anti-Myc agarose beads, 4 °C, 2 h; lysis buffer 50 mM Tris pH 7.6, 150 mM NaCl, 5 mM MgCl2, 10% glycerol, 0.1% NP-40, 0.5 mM DTT
[3] = target: IMPA2-Myc (from pIMPA2:IMPA2-Myc) (Arabidopsis thaliana) (UniProt F4JL11); assay: as above
[4] = target: SWO1g-Myc (SWOLLEN 1 with 3xMyc, from SWO1pro:SWO1g-Myc) (Arabidopsis thaliana) (UniProt F4JP43); assay: affinity purification with mass spectrometry; SWO1g-Myc as bait from transgenic Arabidopsis seedlings; anti-Myc agarose beads, 4 °C, 2 h; lysis buffer 50 mM Tris pH 7.6, 150 mM NaCl, 5 mM MgCl2, 10% glycerol, 0.1% NP-40, 0.5 mM DTT; four independent experiments; remark: listed apart in the source

binding [1]	Molecule	also measured
binds	IMPA2 (importin alpha), endogenous (from UniProt F4JL11 1-535)	–
binds	XPO1A, endogenous (from UniProt Q9SMV6 1-1075)	–
–	SWO1 (SWOLLEN 1), endogenous (from UniProt F4JP43 1-2037)	binding [2]: binds; binding [3]: binds
binds	CHR11 (chromatin remodeling protein), endogenous (from UniProt Q8RWY3 1-1056)	–
binds	IMPA1 (importin alpha), endogenous (from UniProt Q96321 1-532)	–
binds	IMPA4 (importin alpha), endogenous (from UniProt O80480 1-538)	–
binds	MOS6 (importin alpha 3), endogenous (from UniProt O04294 1-531)	–
–	KPNB1 (importin beta), endogenous (protein, UniProt Q9FJD4 1-870) MAMEVTQLLINAQSIDGTVRKHAEESLKQFQEQNLAGFLLSLAGELANDEKPVDSRKLAGLVLKNALDAKEQHRKYELVQRWLALDMSTKSQIRAFLLKTLSAPVPDVRSTASQVIAKVAGIELPQKQWPELIVSLLSNIHQLPAHVKQATLETLGYLCEEVSPDVVEQEHVNKILTAVVQGMNAAEGNTDVRLAATRALYMALGFAQANFNNDMERDYIMRVVCEATLSPEVKIRQAAFECLVSIASTYYEKLAHYMQDIFNITAKAVREDDESVALQAIEFWSSICDEEIDILEEYGGEFAGDSDVPCFYFTKQALPGLVPLLLETLLKQEEDQDLDEGAWNIAMAGGTCLGLVARAVGDDIVPHVMPFIEEKISKPDWREREAATYAFGSILEGPSADKLMAIVNAALTFMLNALTNDPSNHVKDTTAWTLGRIFEFLHGSTIETPIINQANCQQIITVLIQSMNDAPNVAEKACGALYFLAQGYEDIGPSSPLTPFFQEIIKSLLAVAHREDATESRLRTAAYEALNEVVRCSTDETSTMVLQLVPVIMMELHNTLEGEKLSLDEREKQNELQGLLCGCLQVIIQKLGSEPTKSKFMEYADQMMGLFLRVFGCRSATAHEEAMLAIGALAYAAGPNFAKYMPEFYKYLEMGLQNFEEYQVCAVTVGVVGDVCRALEDKILPYCDGIMTQLLKDLSSNQLHRSVKPPIFSCFGDIALAIGEDFDKYWRYSMPMLQSAAELSAHSAGADDEMTEYTNSLRNGILEAYSGIFQGFKNSAKTQLLIPFAPHILQFLDSIYMEKDMDEVVMKTAIGVLGDLADTLGSHVGGLIQQSVSSKEFLNECLSSEDHTIKEAAEWAKHAITRAISV	binding [4]: binds
